# Data source: PubChem BioAssay AID1259274 (Sanger Institute, 2017)
# Test: 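siRNA screen of kinases for partners that act in synergy with targeted drugs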 (primary screen)
# System: human RKO colorectal cancer cells
# Reagent: siRNA pool against human genes
# Challenge: anchor drugs BYL719 at 1 µM, cetuximab at 5 µg/ml or trametinib at 10 nM; DMSO vehicle as the no-drug arm
# Read-out: 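Viability as fraction of non-targeting pool 2 control, averaged across replicates, robust z-score for single knock-down, and a combination synergy score per anchor drug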
# Direction: viability z-score, siRNA alone: higher = more viable cells; low values mean essential gene; viability, siRNA alone, vehicle: higher = more viable cells; synergy score with BYL719 and synergy score with Trametinib and synergy score with Cetuximab: higher = stronger combined killing with the drug
# Rule for the call: 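Essential when the robust viability z-score with siRNA only falls below -3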
# Meaning of the calls: active = essential when knocked down alone; inactive = no change alone
# This is a random part of 794 reagents. Over the whole deposit, 11 (1.4%) were called active. 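Calls rest on knock-down without drug only; synergy scores with anchor drugs were not used for the essential call.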 Entries without a mark were called inactive. Viability is capped at 1. The record does not give: the amount of reagent, the time to read-out.
Target gene,"viability z-score, siRNA alone","viability, siRNA alone, vehicle (fraction of control)",synergy score with BYL719,synergy score with Trametinib,synergy score with Cetuximab
PFKFB1,0.403,0.933,-0.0547,-0.0697,-0.0675
CSNK2B,0.246,0.919,-0.0458,-0.109,-0.0809
UCKL1,0.555,0.946,-0.0365,-0.238,-0.0544
SLK,0.495,0.94,-0.0631,-0.131,-0.0596
ERBB4,-0.66,0.841,-0.191,-0.288,-0.159
MAGI2,0.384,0.931,-0.135,-0.221,-0.0246
EPHA3,-0.428,0.861,0.00987,-0.0556,0.0526
PDXK,1.19,1,0.0392,-0.24,0.0536
PRKAR2A,-0.868,0.824,-0.136,-0.224,-0.14
AMER1,0.861,0.972,0.0384,-0.087,0.0201
LRRK2,0.83,0.969,-0.0487,-0.145,-0.0158
MOK,-1.32,0.785,-0.103,-0.276,-0.215
CDK19,1.19,1,-0.103,-0.183,0.0569
CDK3,-0.276,0.874,0.0177,0.0185,0.046
MAPK4,-0.578,0.849,-0.06,-0.178,-0.151
CDK6,0.349,0.928,-0.0288,-0.0398,0.00786
PRKCH,-0.426,0.862,0.0682,0.0738,0.0152
WNK3,1.01,0.985,0.0314,-0.166,0.00962
PRKAA1,0.322,0.926,-0.0116,-0.167,0.031
TRPM7,-2.18,0.711,-0.0471,-0.226,-0.155
AGK,0.151,0.911,-0.123,-0.205,-0.0811
TSSK4,0.673,0.956,0.0705,-0.032,-0.017
GUCY2C,-1.02,0.81,-0.0329,-0.231,-0.0492
MAP4K4,-0.551,0.851,-0.219,-0.348,-0.149
PFKL,0.281,0.922,-0.101,-0.248,-0.026
SCYL3,0.3,0.924,-0.0331,-0.294,-0.0763
FLT3,0.489,0.94,0.0326,-0.0307,-0.00118
EPHA2,1.19,1,-0.121,-0.225,0.0233
PRKCG,-0.163,0.884,-0.0693,-0.198,-0.1
HSPB8,-0.462,0.858,-0.047,-0.217,-0.0804
PDGFRL,0.0925,0.906,-0.0776,-0.251,-0.0593
HIPK3,1.19,1,0.0157,-0.349,0
RPS6KA2,-1.25,0.791,-0.0515,-0.0353,0.0399
ZAP70,0.853,0.971,-0.0446,-0.089,-0.0289
CDC42BPB,0.696,0.958,-0.0726,-0.259,-0.00603
RIPK2,0.00935,0.899,0.0135,-0.0125,0.0775
CDK16,-1.52,0.768,-0.089,-0.149,-0.144
ERN2,-0.214,0.88,-0.0871,-0.0884,-0.111
SRPK1,0.944,0.979,0.0705,-0.112,0.125
UCK1,0.446,0.936,-0.0916,-0.136,-0.0638
IGF1R,-0.12,0.888,0.0645,0.0163,-0.112
KHK,-0.669,0.841,-0.0676,-0.0708,-0.0811
TAF1L,-0.0129,0.897,-0.0893,-0.186,-0.0387
CAMK1G,0.871,0.973,-0.101,-0.0788,-0.0274
SIK3,0.427,0.935,-0.106,-0.165,-0.0405
CALM1,0.744,0.962,-0.0621,-0.0281,-0.0382
CDK12,-0.301,0.872,-0.045,-0.21,-0.0313
CSNK1G2,0.899,0.975,-0.0636,-0.222,-0.0249
SBK1,1.19,1,-0.0247,-0.105,0.0742
PCBP1,-1.05,0.808,-0.0502,-0.126,0.0121
LRRK1,1.04,0.987,0.139,-0.162,-0.0131
PBK,0.445,0.936,-0.105,-0.185,-0.0371
TJP2,-0.208,0.88,-0.132,-0.136,-0.0634
ALDH18A1,0.119,0.908,-0.07,-0.237,-0.0235
ULK4,-0.035,0.895,0.0193,-0.0882,-0.00262
FN3KRP,0.144,0.91,0.0462,0.0104,0.0532
KIT,-1.26,0.79,-0.151,0.037,-0.0143
XYLB,-0.673,0.84,-0.125,-0.24,-0.125
ADPGK,-0.987,0.813,-0.17,-0.163,-0.162
CERT1,1.19,1,-0.0324,-0.182,0
SRC,-0.663,0.841,-0.0173,-0.105,0.0535
PIM3,1.12,0.994,0.0111,-0.227,-0.00594
IPPK,1.19,1,0.069,-0.0783,0

10 consecutive records from above, quoted:
Target gene,"viability z-score, siRNA alone","viability, siRNA alone, vehicle (fraction of control)",synergy score with BYL719,synergy score with Trametinib,synergy score with Cetuximab
CDK12,-0.301,0.872,-0.045,-0.21,-0.0313
CSNK1G2,0.899,0.975,-0.0636,-0.222,-0.0249
SBK1,1.19,1,-0.0247,-0.105,0.0742
PCBP1,-1.05,0.808,-0.0502,-0.126,0.0121
LRRK1,1.04,0.987,0.139,-0.162,-0.0131
PBK,0.445,0.936,-0.105,-0.185,-0.0371
TJP2,-0.208,0.88,-0.132,-0.136,-0.0634
ALDH18A1,0.119,0.908,-0.07,-0.237,-0.0235
ULK4,-0.035,0.895,0.0193,-0.0882,-0.00262
FN3KRP,0.144,0.91,0.0462,0.0104,0.0532
